Experimental data: publication PMC4624725
Changes are numbered by the printed parent chain. Numbers in names are those of the source. Results are given in words; binding and its absence hold for the method and conditions named. In cells and extracts the contact can be indirect. Some binding calls cover weakened binding; strength is not graded here.

Amino acid sequences for entries named in this document (tags omitted). A change or cut given only in a name is not applied to a line headed by its entry. Chains listed by the source or under a name are the forms on record and can include a tag or linker.
Flag-Sox11 Δ117–214 (P0C1G9, form named): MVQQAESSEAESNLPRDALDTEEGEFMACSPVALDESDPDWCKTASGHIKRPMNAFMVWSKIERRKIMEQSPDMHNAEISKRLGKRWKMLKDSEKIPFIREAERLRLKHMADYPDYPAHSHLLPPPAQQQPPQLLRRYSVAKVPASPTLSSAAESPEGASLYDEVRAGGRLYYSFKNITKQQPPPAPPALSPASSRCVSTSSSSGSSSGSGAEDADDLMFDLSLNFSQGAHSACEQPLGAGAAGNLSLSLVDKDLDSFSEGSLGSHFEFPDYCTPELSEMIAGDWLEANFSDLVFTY

B1: caspase-6 C163A (full length, in HEK 293FT cells) (enzyme, UniProt P55212 1-293)
chain: MSSASGLRRGHPAGGEENMTETDAFYKREMFDPAEKYKMDHRRRGIALIFNHERFFWHLTLPERRGTCADRDNLTRRFSDLGFEVKCFNDLKAEELLLKIHEVSTVSHADADCFVCVFLSHGEGNHIYAYDAKIEIQTLTGLFKGDKCHSLVGKPKIFIIQAARGNQHDVPVIPLDVVDNQTEKLDTNITEVDAASVYTLPAGADFLMCYSVAEGYYSHRETVNGSWYIQDLCEMLGKYGSSLEFTELLTLVNRKVSQRRVDFCKDPSAIGKKQVPCFASMLTKKLHFFPKSN
B2: procaspase-6 (wild type, full length caspase-6) (enzyme, UniProt P55212 1-293)
chain: B1 chain with A163C

Target: Flag-Sox11 Δ117–214 (rat) (UniProt P0C1G9)
Test: co-IP; HEK 293FT lysates (NP-40 buffer); flag-sox11 deletion mutants immunoprecipitated with anti-flag on Dynabeads, caspase-6 detected with anti-caspase-6

Row | Binder | binding
1 | B1 | binds
2 | B2 | binds
